{"source": "PubChem BioAssay AID901", "about": "(National Center for Advancing Translational Sciences (NCATS), 2007)", "note": "The list shows a part of the results. These are further read-outs of the screen, such as a control signal, another cell line or another target. No call is given for them. Compounds called inactive in the main read-out are mostly missing here. Words in brackets tell the shape of the fitted curve; partial curves, single points and poor fits give uncertain potencies."}
{"experiment": "qHTS Assay for Identifying the Cell-Membrane Permeable IMPase Inhibitors", "details": "CHO-M1 cells, IP1 accumulation, HTRF TR-FRET ratio; measured here: donor channel 620 nm AC50", "excerpt": "NCGC IMPase Assay Overview\nLithium has been widely used for the treatment of bipolar disorder. But lithium has a narrow therapeutic index and it can cause side effects such as thirst, weight gain, tremor, polyuria and memory problems. Although the mechanism for lithium action in treatment of bipolar disorder is still not fully understood, inhibition of inositol monophosphatase (IMPase) and the subsequent depletion of the inositol pool in living cells have been implicated as the primary therapeutic benefit of lithium therapy. Therefore, a selective IMPase inhibitor with reduced side effects might be a good drug candidate to replace lithium for the treatment of bipolar disorder. Several IMPase inhibitors have been discovered previously. However, they are not suitable for therapeutic use because of their poor cell membrane penetrability or oral bioavailability; the development of new cell-permeable IMPase inhibitors is needed.\nIMPase catalyzes the hydrolysis of inositol-1-phosphate (IP1) to release free inositol. Binding of an agonist to a Gq coupled GPCR results in the activation of PLC, which hydrolyzes the PIP2 to form inositol-1,4,5-trisphosphate (IP3) and diacyl glycerol (DAG). While DAG activates protein kinase C (PKC), IP3 triggers the elevation of intracellular free Ca2+. The IP3 is very rapidly inactivated by hydrolysis to IP2, IP1 and then inositol by a series of enzymes including IMPase. Free inositols are used for synthesis of PI and thus start another inositol cycle.\nTo identify new cell-permeable IMPase inhibitors, we developed a cell-based IMPase assay in which the cytosolic IP1 is measured by a time-resolved fluorescence resonance energy transfer (TR-FRET) assay. In this assay, an IP1 specific antibody is used to detect the labeled IP1 tracer. When the cell lysate contains the elevated IP1 due to the inhibition of IMPase, the TR-FRET between the labeled antibody and IP1 tracer is disrupted resulting in a reduction in the total signal. Since the TR-FRET is used, this cell-based assay is a homogenous assay without cell wash and medium change that is suitable for assay miniaturization and HTS.\nNCGC IMPase Assay Protocol Summary\nA Chinese hamster ovary (CHO) cell line stably expressing the M1 receptor (CHO-M1) was obtained from ATCC and maintained in F-12 Kaighn's media (Invitrogen, Carlsbad, CA, 21127) supplemented with 10 % FBS, 100 units/ml penicillin, 100 ug/ml streptomycin and 250 ug/ml geneticin at 37C, 5% CO2 in a humidified atmosphere. Before the assay, aliquots of cells were frozen and stored at -135C. The assay was performed in 1536-well format. Data are reported for both the ratio of the two emission wavelengths, and also for the component 'donor' channel, Em2=620. […] AC50 values were determined from concentration-response data modeled with the standard Hill equation.\nIMPase 1536-well assay protocol:\n(1) Plate 4 ul/well (2000 cells) of cell suspension from frozen CHO-M1 Cells in white, tissue culture treated 1536-well plates that are cultured at 37C, 5 % CO2 for 16 to 30 hours.\n(2) Add 23 nl/well of compound in DMSO solution. The final titration for each compound was between 0.6 nM and 46 uM.\n(3) Add 1 ul of carbachol (50 uM in stimulation buffer containing10mM HEPES, 1mM CaCl2, 0.5 mM MgCl2, 4.2 mM KCl, 146 mM NaCl, 5.5 mM glucose, 50mM LiCl, pH 7.4.\n(4) Incubation at 37C, 5 % CO2 for 30 min.\n(5) Add 1 ul/well of d2-conjugated IP1 (d2-IP1) and 1 ul/well of Eu+ cryptate conjugated anti-IP1 antibody (Eu+-Ab) prepared in the cell lysis buffer, both from the IP-One kit (Cisbio, MA).\n(6) Incubate at room temperature for 10 minutes.\n(7) Detect the assay plate (Ex = 320, Em1 =665 and Em2 620) in a ViewLux plate reader.\ninositol monophosphatase, IMPase, IMPase inhibitor, lithium, bipolar disorder, IP-One, HTRF, qHTS, NIH roadmap, NCGC\nNote: In the gene ID and protein GI references for this assay, rat IMPase is referenced instead of hampster as hamster accession numbers were not available."}
{"smiles": "Nc1ccc2c(c1)C(=O)C(=O)c1ccccc1-2", "AC50": "12600 nM [falling, partial curve]"}
{"smiles": "COc1ccc(OC)c(S(=O)(=O)Nc2cc(OC)c(Cl)cc2OC)c1", "AC50": "14.1 nM [falling, full curve, poor fit]"}
{"smiles": "CCOC(=O)c1cccnc1SCC(=O)NC(C)CC", "note": "(configuration not stated)", "AC50": "1000 nM [falling, full curve]"}
{"smiles": "CCC1CCc2sc(C(=O)O)cc2C1", "note": "(configuration not stated)", "AC50": "7.94 nM [rising, full curve, poor fit]"}
{"smiles": "Cc1nc(N(C)C)c2sc(=S)n(C)c2n1", "AC50": "31600 nM [rising, single point]"}
{"smiles": "COc1ccc(S(=O)(=O)Nc2cccc(N(C)S(C)(=O)=O)c2)cc1Br", "AC50": "31.6 nM [falling, full curve, poor fit]"}
{"smiles": "Cc1cc(C)c(S(=O)(=O)NCCc2cc3ccc(C)c(C)c3[nH]c2=O)c(C)c1", "AC50": "14.1 nM [rising, full curve, poor fit]"}
{"smiles": "O=C(Nc1cc(C(F)(F)F)ccc1N1CCCCC1)c1cccc([N+](=O)[O-])c1", "AC50": "3160 nM [rising, full curve]"}
{"smiles": "CC(=O)C1C(=O)C=C(c2ccco2)CC1c1ccccc1", "note": "(configuration not stated)", "AC50": "35500 nM [falling, single point]"}
{"smiles": "COc1ccc(NC(=O)Cn2c(=O)n(Cc3ccccc3Cl)c(=O)c3cc(OC)c(OC)cc32)cc1", "AC50": "5620 nM [rising, single point]"}
{"smiles": "CCN(CC)CCN1C(=O)C(=O)/C(=C(/O)c2c(C)[nH]c(C(=O)OC)c2C)C1c1ccco1", "note": "(configuration not stated)", "AC50": "251 nM [falling, full curve, poor fit]"}
{"smiles": "CCOC(=O)C1=C(C)NC2=C(C(=O)CCC2)C1c1ccsc1", "note": "(configuration not stated)", "AC50": "1000 nM [falling, single point]"}
{"smiles": "CCCC(=O)NC(Nc1ccc(S(=O)(=O)Nc2ncccn2)cc1)(C(=O)OCC)C(F)(F)F", "note": "(configuration not stated)", "AC50": "1260 nM [falling, full curve, poor fit]"}
{"smiles": "CCCCOc1cccc(-c2nnc(NC(=O)CSc3ccc(C)cc3)s2)c1", "AC50": "50.1 nM [falling, full curve, poor fit]"}
{"smiles": "COCCCn1cnc2c(c1=O)c1nc3ccccc3nc1n2CCc1ccccc1", "AC50": "6310 nM [falling, single point]"}
{"smiles": "O=C(Cn1cnc2c(oc3ccccc32)c1=O)N1CCN(c2ccccc2)CC1", "AC50": "708 nM [falling, partial curve]"}
{"smiles": "CC(C)Cn1c(=O)c2c(c3ccccc31)OC(C)C(=O)N2", "note": "(configuration not stated)", "AC50": "5010 nM [falling, single point]"}
{"smiles": "C=CCn1c(=O)[nH]c2cc(C(=O)N3CCN(c4cccc(Cl)c4)CC3)ccc2c1=O", "AC50": "2510 nM [falling, partial curve]"}
{"smiles": "O=C(NCCO)c1cccc(S(=O)(=O)N2CCCCC2)c1", "AC50": "25.1 nM [rising, full curve, poor fit]"}
{"smiles": "CC1=NOC(=O)/C1=C/c1ccc(N(C)C)cc1", "AC50": "2000 nM [rising, full curve, poor fit]"}
{"smiles": "COCCNC(=O)CSc1nnc2c(Cl)cc(Cl)cn12", "AC50": "3160 nM [rising, full curve, poor fit]"}
{"smiles": "Cc1ccc(C)c(NC(=O)C(C)N(c2ccccc2)S(C)(=O)=O)c1", "note": "(configuration not stated)", "AC50": "562 nM [falling, full curve, poor fit]"}
{"smiles": "Cc1ccc(S(=O)(=O)NCC(=O)Nc2ccc(C(F)(F)F)cc2)cc1", "AC50": "794 nM [falling, full curve, poor fit]"}
{"smiles": "CC(C)N(c1nnc(N)s1)C(C)C", "AC50": "31600 nM [falling, single point]"}
{"smiles": "COc1ccccc1NC(=O)CN(C)S(=O)(=O)c1ccc(F)cc1", "AC50": "35500 nM [rising, single point]"}
{"smiles": "CC1(C)c2ccccc2N2CC(=O)N(CC(N)=O)C21C", "note": "(configuration not stated)", "AC50": "50.1 nM [falling, full curve, poor fit]"}
{"smiles": "Cc1cccc(OCc2nnc(SCC(=O)Nc3cc(C)on3)n2C)c1", "AC50": "5010 nM [falling, full curve, poor fit]"}
{"smiles": "CC(C)c1nc(SCC(=O)N2c3ccccc3CC2C)c2ccccc2n1", "note": "(configuration not stated)", "AC50": "31.6 nM [falling, full curve, poor fit]"}
{"smiles": "COc1ccccc1Nc1nc(-c2sc(NC(=O)C(C)(C)C)nc2C)cs1", "AC50": "100 nM [rising, full curve, poor fit]"}
{"smiles": "COc1ccc2c(c1)c(CC(=O)O)c(C)n2Cc1ccc(F)cc1", "AC50": "3.98 nM [falling, full curve, poor fit]"}
{"smiles": "COc1cc2c(cc1NC(=S)Nc1cccc(C)c1)oc1ccccc12", "AC50": "79.4 nM [falling, full curve, poor fit]"}
{"smiles": "COc1cc2ccc(=O)oc2c(O)c1O", "AC50": "25100 nM [falling, partial curve]"}
{"smiles": "O=C(Nc1ccccc1Cl)N1CCN(c2ccccn2)CC1", "AC50": "794 nM [falling, full curve]"}
{"smiles": "Cc1noc(/C=C/N(C)C)c1S(=O)(=O)N1CCCC(C(=O)NC2CCCCC2)C1", "note": "(configuration not stated)", "AC50": "3980 nM [rising, single point]"}
{"smiles": "COc1cc(NC(=S)NC(=O)c2ccc(C)cc2C)ccc1NC(=O)c1cccs1", "AC50": "12600 nM [rising, partial curve]"}
{"smiles": "Cc1cccc(-c2c3c(=O)n(C)c(=O)n(C)c3c3cnc4ccccc4n23)c1", "AC50": "5.01 nM [rising, full curve]"}
{"smiles": "COc1ccc2[nH]c3c(=O)n(CCCCC(=O)N4CCC(C(N)=O)CC4)c(=S)[nH]c3c2c1", "AC50": "5010 nM [rising, single point]"}
{"smiles": "O=C(CCCO)c1ccc2c(c1)OCCO2", "AC50": "501 nM [falling, full curve, poor fit]"}
{"smiles": "COC(=O)c1ccc(NC(=O)COC(=O)CSc2nc(C)cc(C)n2)cc1", "AC50": "3160 nM [rising, partial curve]"}
{"smiles": "Cc1cc(C(F)F)n2ncc(C(=O)NCc3ccccc3)c2n1", "AC50": "5.01 nM [falling, full curve, poor fit]"}
{"smiles": "O=C(CCC1N=C2c3ccccc3N=C(SCC(=O)Nc3ccccc3F)N2C1=O)NCc1cccs1", "note": "(configuration not stated)", "AC50": "31600 nM [rising, single point]"}
{"smiles": "CCOC(=O)n1c(=O)n(Cc2ccccc2)c2ccccc21", "AC50": "631 nM [rising, full curve, poor fit]"}
